Data reported in article PMC8266240 (Journal of Enzyme Inhibition and Medicinal Chemistry, 2021).

Tests used:
Assay type in all cases: cell-based
MCF-10A = assay: MTT cell viability assay, MCF-10A normal cells; conditions: Homo sapiens, 48 h, read-out: Normal cells (IC50, μM) MCF-10A
MDA-MB-231 = assay: MTT cell viability assay, MDA-MB-231; conditions: Homo sapiens, MDA-MB-231, 48 h, read-out: Cancer cells (IC50, μM) MDA-MB-231
LO2 = assay: MTT cell viability assay, LO2 normal cells; conditions: Homo sapiens, L02, 48 h, read-out: Normal cells (IC50, μM) LO2
MCF-7 = assay: MTT cell viability assay, MCF-7; conditions: Homo sapiens, MCF7, 48 h, read-out: Cancer cells (IC50, μM) MCF-7
HepG2 = assay: MTT cell viability assay, HepG2; conditions: Homo sapiens, HepG2, 48 h, read-out: Cancer cells (IC50, μM) HepG2
HeLa cells = assay: Cell growth inhibition / MTT cell viability assay, HeLa; conditions: Homo sapiens, 48 h, read-out: Cancer cells (IC50, μM) HeLa

- IC50 (MDA-MB-231): 28.19 ± 0.24 µM
- IC50 (MCF-7): 40.08 ± 0.35 µM
- IC50 (HepG2): 28.08 ± 0.25 µM
- IC50 (HeLa cells): 37.3 ± 0.22 µM
SMILES: Cc1ccc(NC(=O)c2ccc(CN3CCN(C)CC3)cc2)cc1Nc1nccc(-c2cccnc2)n1 [Imatinib, imatinib]
- IC50 (MCF-10A): 39.4 ± 0.42 µM
- IC50 (LO2): 87.67 ± 0.31 µM
